Test results from article PMC6356782.
Results are given in words; binding and its absence hold for the method and conditions named. In cells and extracts the contact can be indirect. Some results given as binding are weak or reduced against the parent protein; the word gives no strength.

Sequences of proteins named here, by UniProt entry; tags and fusion partners are left off.
UniProt O60674: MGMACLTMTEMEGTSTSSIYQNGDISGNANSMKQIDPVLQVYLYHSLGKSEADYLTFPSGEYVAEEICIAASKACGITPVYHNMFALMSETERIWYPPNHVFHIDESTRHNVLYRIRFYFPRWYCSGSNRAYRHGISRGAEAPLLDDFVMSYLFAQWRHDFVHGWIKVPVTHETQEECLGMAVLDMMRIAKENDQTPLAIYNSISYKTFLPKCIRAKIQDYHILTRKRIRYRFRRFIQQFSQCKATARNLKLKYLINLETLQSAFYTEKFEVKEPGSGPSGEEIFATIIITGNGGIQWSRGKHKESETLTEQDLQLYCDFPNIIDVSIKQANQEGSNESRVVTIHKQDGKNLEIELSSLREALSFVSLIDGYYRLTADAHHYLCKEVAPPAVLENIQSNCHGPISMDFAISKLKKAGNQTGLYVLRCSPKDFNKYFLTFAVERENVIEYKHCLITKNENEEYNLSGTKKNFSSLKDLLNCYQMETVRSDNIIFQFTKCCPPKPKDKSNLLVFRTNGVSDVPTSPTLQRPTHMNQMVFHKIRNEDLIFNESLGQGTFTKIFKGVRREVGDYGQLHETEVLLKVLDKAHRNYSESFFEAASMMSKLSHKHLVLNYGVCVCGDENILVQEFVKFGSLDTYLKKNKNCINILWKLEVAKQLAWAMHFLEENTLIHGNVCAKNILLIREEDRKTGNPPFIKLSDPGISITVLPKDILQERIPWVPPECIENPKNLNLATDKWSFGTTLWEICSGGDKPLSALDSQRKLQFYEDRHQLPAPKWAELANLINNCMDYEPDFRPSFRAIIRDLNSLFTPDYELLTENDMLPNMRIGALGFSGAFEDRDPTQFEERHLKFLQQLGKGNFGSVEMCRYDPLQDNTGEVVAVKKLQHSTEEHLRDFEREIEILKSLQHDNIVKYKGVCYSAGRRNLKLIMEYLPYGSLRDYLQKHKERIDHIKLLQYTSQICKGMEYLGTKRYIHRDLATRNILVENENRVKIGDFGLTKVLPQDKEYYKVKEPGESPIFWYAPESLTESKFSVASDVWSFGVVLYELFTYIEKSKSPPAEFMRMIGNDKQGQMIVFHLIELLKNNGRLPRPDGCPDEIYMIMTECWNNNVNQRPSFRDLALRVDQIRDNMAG
UniProt O95751: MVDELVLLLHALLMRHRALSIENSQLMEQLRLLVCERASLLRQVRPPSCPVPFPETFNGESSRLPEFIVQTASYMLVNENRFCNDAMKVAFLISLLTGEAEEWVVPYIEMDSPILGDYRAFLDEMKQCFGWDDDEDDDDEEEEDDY

Experiments:
[1] = target: phospho-JAK2 (pJAK2) (human (endogenous in A549)) (UniProt O60674); test: co-IP; endogenous proteins; IL-6-stimulated (100 ng/mL) A549 and A549-shCtrl-D10 cells; NP-40 lysis buffer with MG132 and ubiquitin aldehyde; extracts precleared with IgG, immunoprecipitated with antibodies against pJAK2, LDOC1 or LNX1; immunoblot
[2] = target: Leucine Zipper Down-Regulated In Cancer 1 (LDOC1) (human (endogenous in A549)) (UniProt O95751); test: as above

Molecule | binding [1] | binding [2]
Leucine Zipper Down-Regulated In Cancer 1 (LDOC1) (from UniProt O95751 1-146) | binds | 
Ligand Of Numb-Protein X 1 (LNX1), E3 ubiquitin-protein ligase (enzyme, UniProt Q8TBB1 1-728) MNQPESANDPEPLCAVCGQAHSLEENHFYSYPEEVDDDLICHICLQALLDPLDTPCGHTYCTLCLTNFLVEKDFCPMDRKPLVLQHCKKSSILVNKLLNKLLVTCPFREHCTQVLQRCDLEHHFQTSCKGASHYGLTKDRKRRSQDGCPDGCASLTATAPSPEVSAAATISLMTDEPGLDNPAYVSSAEDGQPAISPVDSGRSNRTRARPFERSTIRSRSFKKINRALSVLRRTKSGSAVANHADQGRENSENTTAPEVFPRLYHLIPDGEITSIKINRVDPSESLSIRLVGGSETPLVHIIIQHIYRDGVIARDGRLLPGDIILKVNGMDISNVPHNYAVRLLRQPCQVLWLTVMREQKFRSRNNGQAPDAYRPRDDSFHVILNKSSPEEQLGIKLVRKVDEPGVFIFNVLDGGVAYRHGQLEENDRVLAINGHDLRYGSPESAAHLIQASERRVHLVVSRQVRQRSPDIFQEAGWNSNGSWSPGPGERSNTPKPLHPTITCHEKVVNIQKDPGESLGMTVAGGASHREWDLPIYVISVEPGGVISRDGRIKTGDILLNVDGVELTEVSRSEAVALLKRTSSSIVLKALEVKEYEPQEDCSSPAALDSNHNMAPPSDWSPSWVMWLELPRCLYNCKDIVLRRNTAGSLGFCIVGGYEEYNGNKPFFIKSIVEGTPAYNDGRIRCGDILLAVNGRSTSGMIHACLARLLKELKGRITLTIVSWPGTFL |  | binds
